# Reference: PubChem BioAssay AID504834 (National Center for Advancing Translational Sciences (NCATS), 2011)
# Out of some 320,000 compounds screened, about 22,000 (6.9%) were called active. Inconclusive results, whose numbers are uncertain, are shown with a selection of clear calls. Calls come from the whole dose curve; as a rule, active = well fitted inhibition curve with a large enough effect; inconclusive = small, poorly fitted or top-dose-only effect, or another doubt; inactive = no such curve, though single readings can be large or run the other way. Potencies of inconclusive entries are doubtful fits and often do not repeat.
# Experiment: Primary qHTS for delayed death inhibitors of the malarial parasite plastid, 96 hour incubation
# Conditions: P. falciparum luciferase reporter growth; series mostly up to 28.7 µM
# How it was run: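 Infected RBCs, 2% Hct / 0.05% parasitemia final; luciferase-reporter P. falciparum; cpd 96 h, 37 C, 5% CO2; luciferase detection reagent; luminescence.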
# Potency is the fitted concentration of half-maximal effect.
row,SMILES,Potency
1,CCOc1ccc(N(C)C(=O)CCc2nnc3ccc(NCc4ccco4)nn23)cc1,"inconclusive: 4.15 µM [inhibitor, partial curve, poor fit]"
2,CCOc1ncccc1C(=O)NCC1COc2ccccc2O1 (stereo not drawn),"inconclusive: 18.5 µM [inhibitor, single point]"
3,c1ccc2[nH]c(CSc3nccs3)nc2c1,"inconclusive: 18.5 µM [inhibitor, single point]"
4,CC(c1cc2ccccc2s1)N(O)C(N)=O (stereo not drawn),active: 0.379 µM
5,COc1ccc(-c2csc(NC(=O)c3ccc(S(=O)(=O)N4CCc5ccccc5C4)cc3)n2)cc1,"inconclusive: 18.5 µM [inhibitor, single point]"
6,O=C(CSCc1c(Cl)cccc1Cl)Nc1nccs1,"inconclusive: 0.0586 µM [inhibitor, full curve, poor fit]"
7,COc1ccc(NC(=O)c2ccc(COc3ccccc3)o2)c(OC)c1,active: 8.28 µM
8,O=C(CN1C(=O)COc2ccccc21)N1CCCc2ccccc21,"inconclusive: 18.5 µM [inhibitor, single point]"
9,O=C(Nc1ccccc1C(=O)NCC1CCCO1)c1ccc(Cl)cc1Cl (stereo not drawn),"inconclusive: 3.7 µM [inhibitor, single point]"
10,CN(C)/C=N/c1nc2nccc(-c3cccs3)n2n1,"inconclusive: 2.94 µM [inhibitor, full curve]"
11,COc1ccc(/C=C(/C#N)C(=O)Nc2cc(C)ccc2C)cc1C(=O)O,inactive
12,C/C(CCN1CCc2nc(-c3ccccc3)c(-c3ccccc3)cc2C1)=N\O[C@H](C)c1cn([C@H](CO)Cc2ccccc2)nn1,active: 13.1 µM
13,CCOC(=O)C1(CCOc2ccccc2)CCN(Cc2ccc(C)o2)CC1,"inconclusive: 11.7 µM [inhibitor, single point]"
14,Cc1ccc2c(c1)C(c1ccncc1)=NNC(c1ccccc1)=N2,"inconclusive: 10.4 µM [inhibitor, single point]"
15,O=C(c1ccc2snnc2c1)N1CCCCC1,"inconclusive: 11.7 µM [inhibitor, single point]"
16,COC(=O)Cn1ncc2c3ccccc3n(Cc3ccccc3)c2c1=O,active: 5.22 µM
17,COCCN(C(=O)Nc1ccccc1)C(C)c1cccnc1 (stereo not drawn),active: 5.22 µM
18,CC(=O)Nc1ccc(-c2nnc(SCC(=O)NCc3ccco3)n2C)cc1,active: 6.57 µM
19,C/C(=N\NC(=O)CSc1ncccn1)c1ccc2c(c1)OCCO2,"inconclusive: 6.57 µM [inhibitor, partial curve, poor fit]"
20,O=C(COC(=O)CC12CC3CC(CC(C3)C1)C2)Nc1ncc(Cl)cc1Cl,"inconclusive: 18.5 µM [inhibitor, single point]"
21,COCC(=O)N1CCC(Oc2ccc(C(=O)NCCCC3CCCC3)cc2)CC1,active: 7.38 µM
22,CCOC(=O)Oc1ccc(/C=C2\N=C(C)OC2=O)cc1,inactive
23,COc1cc(C(=O)N2CCN(c3ccccc3OC)CC2)c([N+](=O)[O-])cc1OC,"inconclusive: 18.5 µM [inhibitor, single point]"
24,O=C1N=C(N2CCCC2)S/C1=C\c1cn[nH]c1-c1ccccc1,"inconclusive: 2.62 µM [inhibitor, full curve, poor fit]"
25,Cc1cc(N2CCOCC2)ccc1/C=C1\SC(=O)N(C(C)C)C1=O,inactive

row,SMILES,Potency
1,CCCN1C(=O)/C(=C\C=C2/Sc3ccccc3N2CCO)SC1=S,"inconclusive: 14.7 µM [inhibitor, single point]"
2,COC(=O)c1ccc(-n2c(C)cc(C(=O)COC(=O)CC3Sc4ccccc4NC3=O)c2C)cc1 (stereo not drawn),"inconclusive: 18.5 µM [inhibitor, single point]"
3,COC(=O)CN(C(=S)Nc1ccc(F)cc1)C1CC(=O)N(c2ccccc2)C1=O (stereo not drawn),inactive
4,Cc1cccc2[nH]c3c(N4CC=C(c5ccc(F)cc5)CC4)ncnc3c12,"inconclusive: 0.657 µM [inhibitor, full curve, poor fit]"
5,Cc1ccc(NC(=O)CCC(=O)N/N=C/c2ccc([N+](=O)[O-])o2)cc1C,active: 1.85 µM
6,O/N=C(/c1ccc(F)cc1)C1CC1c1c(F)cccc1Cl (stereo not drawn),inactive
7,Cc1cc2[nH]c(=O)c(=O)[nH]c2cc1S(=O)(=O)N1CCN(c2ccccc2F)CC1,"inconclusive: 5.22 µM [inhibitor, partial curve]"
8,COc1ccccc1CN1C[C@@H]2C[C@@H](c3ccc(C)c(C)c3)N3CCC[C@@]23C1=O,active: 10.4 µM
9,Cc1ccc(F)cc1NC(=O)Cc1nn(C)c(=O)c2ccccc12,"inconclusive: 2.94 µM [inhibitor, single point]"
10,O=C(CSC(=S)N1CCSCC1)c1ccc(Cl)cc1,inactive
11,COCCNC(=O)c1ccc2c(=O)n(Cc3ccco3)c(SCC(=O)NC3CCCC3)nc2c1,active: 11.7 µM
12,Cc1cc(C)cc(NC(=S)N2CCC(N(C)CC3CCCO3)CC2)c1 (stereo not drawn),"inconclusive: 0.0738 µM [inhibitor, full curve, poor fit]"
13,Cc1cccc(N2CCN(C(=O)CSc3nc4ccccc4nc3N3CC(C)OC(C)C3)CC2)c1C (stereo not drawn),"inconclusive: 2.62 µM [inhibitor, full curve, poor fit]"
14,COc1cc(C#Cc2c(-c3cncn3C)n(C)c3ccc(-c4ccc(OC)nc4)cc23)cc(OC)c1,active: 0.0928 µM
15,COc1ccccc1C(=O)NC(=S)Nc1ccc(S(=O)(=O)N2CCN(C)CC2)cc1,inactive
16,O=C(Nc1cccc2ccccc12)c1cccc(F)c1,inactive
17,Cc1cc(C)c[n+](-c2nc3ccccc3nc2[N-]S(=O)(=O)c2ccc(Cl)cc2)c1,"inconclusive: 18.5 µM [inhibitor, single point]"
18,O=C(NCc1ccccc1)C(c1c(F)cccc1Cl)N(C(=O)c1csnn1)C1CC1 (stereo not drawn),inactive
19,Nc1nc(C(F)(F)F)c(Br)c(=O)n1N,inactive
20,C(=C/c1ccccc1)/CN1CCN(C(c2ccccc2)c2ccccc2)CC1,active: 7.21 µM
21,CCCCn1cnc2c1c(=O)n(CC(=O)c1cc(C)n(C)c1C)c(=O)n2CC(C)C,active: 11.7 µM
22,Cn1c(=O)c2c(nc(NC3CCCCC3)n2Cc2ccccc2)n(C)c1=O,"inconclusive: 10.4 µM [inhibitor, single point]"
23,CCN(CCCNC(=O)CCCCn1c(=O)[nH]c2ccccc2c1=O)c1ccccc1,inactive
24,CCN(CC)S(=O)(=O)c1ccc(N2CCOCC2)c(NC(=O)COc2ccccc2C#N)c1,"inconclusive: 18.5 µM [inhibitor, single point]"
25,COC(=O)C1=C(C(=O)OC)[C@@H]2N(C)c3ccccc3[C@@]23C[C@@H](C(=O)OC)N(C(=O)c2cc(C)oc2C)C3=N1,"inconclusive: 18.5 µM [inhibitor, single point]"

# For reference, some entries already given.
row,SMILES,Potency
14,COc1cc(C#Cc2c(-c3cncn3C)n(C)c3ccc(-c4ccc(OC)nc4)cc23)cc(OC)c1,active: 0.0928 µM
15,COc1ccccc1C(=O)NC(=S)Nc1ccc(S(=O)(=O)N2CCN(C)CC2)cc1,inactive
16,O=C(Nc1cccc2ccccc12)c1cccc(F)c1,inactive
17,Cc1cc(C)c[n+](-c2nc3ccccc3nc2[N-]S(=O)(=O)c2ccc(Cl)cc2)c1,"inconclusive: 18.5 µM [inhibitor, single point]"

# Later entries.

row,SMILES,Potency
1,COc1ccccc1/C=C/C(=O)N1CCc2cc(OC)c(OC)cc2C1C (stereo not drawn),"inconclusive: 18.5 µM [inhibitor, single point]"
2,O=C(COc1ccc(C(=O)c2ccccc2)cc1)NC1CCCCCC1,"inconclusive: 20.8 µM [inhibitor, single point]"
3,Cc1cc(C)cc(NC(=O)CSc2nc3nc(C)cc(C)c3c(=O)[nH]2)c1,inactive
4,COc1ccc(NC(=O)C2CCN(S(=O)(=O)c3cccc4cccnc34)CC2)cc1OC,active: 6.57 µM
5,COc1cc(OC)c(NC(=S)NCc2ccc(F)cc2)cc1Cl,inactive
6,COc1cc(/C=C/C(=O)O)cc(S(=O)(=O)N(C)CCO)c1OC,"inconclusive: 0.0047 µM [inhibitor, full curve, poor fit]"
7,Cc1ccc(NC(=O)Nc2cccs2)cc1,active: 7.38 µM
8,Cc1ccc2nc(C3CCCN3Cc3nc(CCC(C)C)no3)[nH]c2c1 (stereo not drawn),inactive
9,COc1cc2c(cc1NC(=O)C(c1ccccc1)c1ccccc1)CCCC2,"inconclusive: 18.5 µM [inhibitor, partial curve, poor fit]"
10,C/C(=N\NC(=O)c1nnn(-c2nonc2N)c1-c1cccs1)c1ccc(O)cc1,active: 11.7 µM
11,Cc1cc(CNC(=S)Nc2ccc(Br)cc2Cl)nn1C,inactive
12,CCCCCCCCCn1cc(C(C)=O)c(=O)[nH]c1=O,inactive
13,Cn1c2ccccc2c2ncn(CCC3=CCCCC3)c(=O)c21,"inconclusive: 8.28 µM [inhibitor, single point]"
14,O=C(O)c1ccc(NCCC2=CCCCC2)c([N+](=O)[O-])c1,"inconclusive: 13.1 µM [inhibitor, single point]"
15,COC(=O)c1ccc(C)c(-n2c(=O)n(Cc3ccccc3)c(=O)c3[nH]cnc32)c1,inactive
16,Cc1ccc(NC(=O)c2sc3nc(N)c(C#N)cc3c2N)cc1,"inconclusive: 18.5 µM [inhibitor, single point]"
17,CCCCCn1c(C)c2c(OCC)cccc(=O)c2c1C,inactive
18,CC1CC(C)CN(C(=O)c2ccc(NS(=O)(=O)c3ccc4[nH]c(=O)[nH]c4c3)cc2)C1 (stereo not drawn),"inconclusive: 14.7 µM [inhibitor, partial curve]"
19,CCC(=O)/C=C1\Sc2ccccc2N1CC,"inconclusive: 13.1 µM [inhibitor, single point]"
20,COc1cc([N+](=O)[O-])ccc1NC(=O)NCc1ccccn1,inactive
21,CN(C(=O)CS(=O)(=O)c1cccc(Cl)c1)c1ccccc1,"inconclusive: 0.738 µM [inhibitor, partial curve, poor fit]"
22,CC(=O)NNC1=Nc2ccccc2N(C)C(C)C1 (stereo not drawn),"inconclusive: 11.7 µM [inhibitor, partial curve]"
23,Cc1nc(-c2cccc(NC(=O)c3ccc(Br)o3)c2)cs1,"inconclusive: 18.5 µM [inhibitor, single point]"

# Some values from above:
# Cc1cc(C)cc(NC(=O)CSc2nc3nc(C)cc(C)c3c(=O)[nH]2)c1 – Potency: inactive
# CCCCn1cnc2c1c(=O)n(CC(=O)c1cc(C)n(C)c1C)c(=O)n2CC(C)C – Potency: active: 11.7 µM
